# Data taken from PubChem BioAssay AID1347423 (Functional Genomics Laboratory (NCATS/FGL), 2020).
# The campaign covered roughly 52,000 sequences. About 210 (0.4%) were called active.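 How the source made its calls: active means gene whose silencing raises cell survival under the drug, median off-target-corrected z-score across its silencing RNAs 2 or more; inactive means the rest.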 This is one part of the list.
# Experiment: Resistance to Poly (ADP-Ribose) Polymerase inhibitor: Gene Identification via Genome-wide siRNA Screen
# Details: mouse BRCA2 R2336H ES cells, olaparib, CellTiter-Glo viability; active compounds read high
# In short: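 Genome-wide siRNA screen (3 siRNAs/gene, 20 nM) in mouse ES cells carrying hypomorphic BRCA2 R2336H; olaparib 500 nM added 48 h post-transfection, CellTiter-Glo viability 72 h later. Normalized to plate-median negative control; MAD z-scores, gene median, seed-adjusted.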
row,Sequence,z-score
1,GCUUAGGUAAUUUCAAGGUTT against Ppp1r15b,inactive: 0.275
2,GGGUCUGGAAUCCAUCCGUTT against Lin28,inactive: 0.716
3,GCUAUGUUAUCACCACCAATT against Kcnab3,inactive: 0.354
4,GGACCUAAUAAAUUAAGCCTT against 2500001H09Rik,inactive: -0.151
5,GGUGCAGGACCAUUUCCAUTT against 8430417G17Rik,inactive: 0.553
6,CCAGCAAAUGGAUAACUUGTT against Epas1,inactive: -0.106
7,CCUAGAUUAAAUACUCGGATT against D030069K18,inactive: -1.17
8,GGCUCCUAGCUGUUUCAGUTT against 4921522K05Rik,inactive: -0.953
9,GGAAUAUGAAGAAGAAUUGTT against Adam7,inactive: -0.56
10,GCGGAACAUCUUAGCUUAATT against 2310042D19Rik,inactive: -0.914
11,GGCUUUAUGACAUCAUUUGTT against 1110008F13Rik,inactive: 1.07
12,GGGCAAGCAGUUCAUUCUGTT against Nr2c1,inactive: 0.609
13,CCGGGAGCUACAAAAACUUTT against Ppp2r5d,inactive: 0.926
14,GGAUUUUCCAUUUCUUCACTT against D2Ertd435e,inactive: -0.433
15,GGGAUACAGAUUUUGUUUATT against Olfr1261,inactive: 0.642
16,GGCUGUUGUACUACACCAATT against Olfr629,inactive: -0.26
17,GCUGACUUGCACAUUCGAUTT against Mpzl1,inactive: 0.657
18,GGAGUUGACCACACUGCUUTT against Smtn,inactive: -1.07
19,GCAACGAGCAAAAAGCAUGTT against Htr2a,inactive: 2.35
20,CGUAGAGUUAAUUACACAATT against Gria4,inactive: -0.185
21,CCGUGGUAUCAAUGAUUGGTT against 1110011D13Rik,inactive: 1.94
22,CGUGAUUGAAUCUCAGGAGTT against 5133400G04Rik,inactive: -0.0981
23,CGAACCCUAGCGGAAAUUGTT against Nono,inactive: 0.303
24,GGCACGUAUCAGUGUCAAGTT against Cd3g,inactive: -0.0516
25,UUAUCCCGUGCAAAUGAAGTT against Akr1c19,inactive: -2.26
26,GGAUUUCUACUCUAAGCUGTT against Setdb1,inactive: -0.787

row,Sequence,z-score
1,GCGAAGUUAAAUCUCAUCATT against Mtl5,inactive: 2.64
2,GCACAUGACCAACAAUACCTT against 4932438A13Rik,inactive: 0.618
3,GGAAGACUUUGAAUACCACTT against Slc4a2,inactive: -0.313
4,GGACUGUUUCCUAUCCACUTT against V2R2,inactive: -0.142
5,GGCAAAGACCCAAGAAGUGTT against 1700029H14Rik,inactive: -0.421
6,GGACCAGGAACAGUUCGAATT against Rela,inactive: -0.247
7,CCAUGUAUAUCUCAUAGCATT against Rnf26,inactive: 0.464
8,GGUCGUAUUGCGCUAUAGCTT against Lnk,inactive: 0.685
9,GCCUGUUCGGGAAUCUUACTT against Olfr297,inactive: -0.396
10,GGAACUUCCCUAUAGUGAATT against Hdac3,inactive: 0.222
11,GGAGAAGAAGAUUUUCCAGTT against Irf2,inactive: -0.436
12,GGUUCAACUUCACACUGAGTT against BC024814,inactive: 1.12
13,GGUGUUUAAAGAUUUCGUUTT against Dhrs2,inactive: 0.996
14,GCUGGUUUCAUCCGCCAUATT against Dvl3,inactive: 1.13
15,GGGUUUCUUGUUGGUUUUATT against E130320D18,inactive: 2.88
16,GGUCACAUUUUGUGAUUUUTT against Tmem30b,inactive: 2.24
17,GGAGUACCUAUUUGUCAUCTT against Cnga2,inactive: 0.21
18,GGCACUGUUCGGCAAGAAGTT against Trappc5,inactive: -0.765
19,CGACAUCUCCCUAGACAAGTT against Itm2c,inactive: -1.82
20,CCGUGACAGUCAUGUUGAUTT against Amt,inactive: -1.5
21,GGAGAAAGUCAAGAUCAAATT against Gpr4,inactive: -0.894
22,GGACAGAGUGAAACUUUAUTT against Pcdhga9,inactive: -0.77
23,CCUUCGGAUACUACUUUUCTT against Olfr531,inactive: 1.42
24,CGCUGGUACCUGAAAUAUUTT against Rnf123,inactive: -0.974
25,GGCCAGUCUUAUGAAAUUCTT against Ubp1,inactive: -0.113
26,CCUGUUUGUACAUCCUUGGTT against Olfr748,inactive: -1.13

# A different layout for part of the listing above.
row	Sequence	z-score
3	GGAAGACUUUGAAUACCACTT against Slc4a2	inactive: -0.313
12	GGUUCAACUUCACACUGAGTT against BC024814	inactive: 1.12
16	GGUCACAUUUUGUGAUUUUTT against Tmem30b	inactive: 2.24
21	GGAGAAAGUCAAGAUCAAATT against Gpr4	inactive: -0.894
